This passage reports odorant receptor activation results from the odorant receptor screen of Mainland et al. (2015).

What all share (test): odorant receptor activation (CRE luciferase / Renilla) (fold of no-odor wells); higher = more activation
Common to all, as to details: 100 µM

For experiment [1], the system named is OR2AG2 Y28C/R54P/R299G clone 1486.
In experiment [2] the test system is OR2AJ1 M1V clone 1448.
The subject of experiment [3] is OR2AK2 V188M clone 1415.
Experiment [4] deals with OR2AP1 clone 1256.
Experiment [5] has as its system OR2AT4 clone 1522.
In experiment [6] the test system is OR2B11 clone 1418.
Experiment [7] relates to OR2B2 clone 1333.
In experiment [8] the test system is OR2B2 clone 1544.
Experiment [9] relates to OR2B3 clone 1063.
The subject of experiment [10] is OR2B6 clone 1436.
Experiment [11] deals with OR2B8 Indel clone 1076.
In experiment [12] the test system is OR2C1 C149W clone 1282.
Experiment [13] deals with OR2C1 G16S/C149W/R229H clone 1408.
The test system of experiment [14] is OR2C1 P58S/C149W clone 1409.
Experiment [15] has as its system OR2C1 clone 1406.
For experiment [16], the system named is OR2C1 clone 1407.
The test system of experiment [17] is OR2C3 T20A/P68S/L289V clone 1454.
Experiment [18] concerns OR2D2 clone 1235.
The test system of experiment [19] is OR2D3 L66I clone 1381.
For experiment [20], the system named is OR2F1 clone 1082.

Where “and” joins values, the source holds several entries; their conditions need not be identical. Equal entries are not always repeated. Some of the results follow. Each value is one well over the wells without odorant, computed here; the data are noisy.

On to `CC(C)CC(=O)O` [isovaleric acid], for which the odorant receptor activation turned out to be 0.741 in experiment [1]; 0.71 in experiment [2]; 0.754 in [3]; 0.631 in experiment [4]; 1.06 in [5]; 0.798 in experiment [6]. The odorant receptor activation was determined as 0.871 in experiment [7]; 0.937 in experiment [8]; 1.27 in experiment [9]; 0.846 in [10]; 1.12 in experiment [11]; 1.12 in [12]. Further, the odorant receptor activation in experiment [13] amounted to 0.874; in experiment [14], 0.865; in [15], 0.923; in experiment [16] it was 1.17; in experiment [17], 0.874; in experiment [18], 1.12. The odorant receptor activation in experiment [19] is 0.786; in [20] it was 0.912.
On to `CC1=NC(C)SC1C` (configuration not stated), for which the odorant receptor activation was 1.24 and 1.11 in [1]; 1.1 and 0.83 in [2]; 1 in experiment [3]; 2.02 in [4]; 0.992 and 0.897 in experiment [5]; 0.824 in experiment [6]. Moreover, the odorant receptor activation in experiment [7] was found to be 0.998; in experiment [9] it was 1.01; in experiment [10] it was 1.07; in experiment [11], 1.74; in [12] it was 2.29; in [13], 1.31. Besides, the odorant receptor activation in experiment [14] was found to be 1.28; in [15], 1.1; in experiment [16] it was 1.4; in [19] it was 0.905; in experiment [20], 1.09.
For `CC12C=CCC1C1CCC3CC(=O)CCC3(C)C1CC2` (configuration not stated) [androstenone], the odorant receptor activation turned out to be 1.14 in experiment [1]; 1.17 in experiment [2]; 0.982 in experiment [3]; 1.17 in [4]; 1.27 in experiment [5]; 1.37 in experiment [6]. Also, the odorant receptor activation in [7] was 1.07; in experiment [8] it was 1.27; in experiment [9] it was 5.31; in [10] it was 1.6; in [11], 2.64; in experiment [12] it was 0.96. The odorant receptor activation in experiment [13] was found to be 1.27; in experiment [14], 1.77; in [15], 1.03; in experiment [16] it was 1.04; in [19], 0.424; in experiment [20] it was 1.58.
With `CC12C=CCC1C1CCC3=CC(=O)CCC3(C)C1CC2` (configuration not stated) [androstadienone], the odorant receptor activation in [1] was 0.799 and 1.26; in [2] it was 0.891; in experiment [3], 0.808; in experiment [4], 0.711 and 0.903; in experiment [5], 0.753 and 2.01; in [6], 1.02. The odorant receptor activation was 1.19 and 0.929 in [7]; 1.09 and 1.12 in experiment [8]; 1.2 in experiment [9]; 0.93 in experiment [10]; 1.87 in [11]; 1.04 and 1 in experiment [12]. Besides, the odorant receptor activation in experiment [13] is 1.11; in experiment [14], 0.924; in experiment [15], 0.95; in experiment [16] it was 0.835; in [19] it was 0.791; in [20] it was 4.46.
Take `C=CCc1ccc(O)c(OC)c1` [eugenol]: the odorant receptor activation is 2.56 and 1.14 and 1.36 in experiment [1]; 2.01 and 0.834 and 1.34 in experiment [2]; 1.21 and 1.53 in [3]; 1.57 and 1.34 in experiment [4]; 1.8 and 1.35 and 1.67 in [5]; 1.11 and 1.04 in experiment [6]. Besides, the odorant receptor activation in experiment [7] is 2.27 and 1.43; in [8], 1.43; in experiment [9], 1.02 and 1.27; in [10] it was 1.42 and 1.38; in [11], 2.72 and 1.07; in [12], 2.19 and 1.27. Further, the odorant receptor activation in experiment [13] was 1.65 and 1.21; in experiment [14] it was 1.65 and 1.21; in [15], 1.68 and 1.06; in experiment [16] it was 1.73 and 1.69; in experiment [17], 0.892; in [18], 1.58. Further, the odorant receptor activation in experiment [19] is 1.22 and 1.17; in experiment [20], 2.79 and 1.36.
Consider `CC(C)(O)CCCC1=CCC(C=O)CC1` (configuration not stated) [lyral], for which the odorant receptor activation in [17] came out at 1.07; in experiment [18] it was 1.13.
As for `CC(=O)c1ccccc1` [acetophenone], the odorant receptor activation is 1.08 and 0.71 in [1]; 1.07 and 0.561 in experiment [2]; 0.876 in experiment [3]; 1.35 in experiment [4]; 1.12 and 0.813 in experiment [5]; 1.04 in experiment [6]. Further, the odorant receptor activation is 0.617 in [7]; 1.13 in experiment [9]; 1.09 in experiment [10]; 1.6 in [11]; 1.85 in experiment [12]; 1.08 in [13]. Further, the odorant receptor activation was 1.09 in experiment [14]; 1.07 in [15]; 1.64 in experiment [16]; 0.652 in experiment [19]; 1.97 in experiment [20].
As for `CCCCCCCC=O` [octyl aldehyde], the odorant receptor activation was 0.854 in experiment [1]; 0.847 in [2]; 0.736 in experiment [3]; 0.943 in [4]; 0.976 in experiment [5]; 0.81 in experiment [6]. The odorant receptor activation in experiment [7] was found to be 1.15; in [8], 0.97; in experiment [9], 1.06; in [10], 0.691; in [11] it was 1.02; in [12], 1.4. Also, the odorant receptor activation was 0.731 in experiment [13]; 0.783 in [14]; 0.904 in experiment [15]; 0.843 in experiment [16]; 0.82 in experiment [17]; 0.948 in [18]. Further, the results for the odorant receptor activation in experiment [19] and in [20] were 0.734 and 0.881, respectively.
Consider `CC(=O)OCC=C(C)CCC=C(C)C` [geranyl acetate], for which the odorant receptor activation is 0.618 and 1.67 in experiment [1]; 1.02 in experiment [2]; 0.975 in experiment [3]; 0.998 and 1 in experiment [4]; 1.13 in experiment [6]; 0.877 and 1.64 in experiment [7]. Further, the odorant receptor activation in experiment [8] is 1.08 and 1.3; in experiment [9] it was 1.4; in [10], 1.08; in [11], 1.33; in experiment [12] it was 0.877 and 1; in experiment [13] it was 1.28. Also, the odorant receptor activation came to 0.951 in experiment [14]; 1.05 in [15]; 0.895 in [16]; 1.39 in experiment [17]; 0.953 in experiment [18]; 1.06 in experiment [19]. Moreover, the odorant receptor activation in experiment [20] was found to be 12.
Consider `CCCC(=O)O` [butyric acid], for which the odorant receptor activation worked out at 0.863 in [1]; 0.165 in [2]; 0.248 in experiment [3]; 0.797 in [4]; 1.2 in experiment [5]; 0.341 in [6]. Also, the odorant receptor activation in experiment [7] amounted to 0.914; in experiment [8], 1.01; in [9] it was 1.35; in experiment [10], 0.218; in experiment [11] it was 1.15; in [12], 1.17. Also, the odorant receptor activation in experiment [13] turned out to be 0.352; in experiment [14], 0.387; in [15], 0.493; in experiment [16], 0.325; in experiment [17] it was 0.931; in [18] it was 0.855. Also, the odorant receptor activation in [19] turned out to be 0.266; in experiment [20], 1.27.
As to `CC(C)(C)c1ccc(CCC=O)cc1` [bourgeonal], the odorant receptor activation in experiment [1] came to 0.935; in experiment [2], 0.122; in experiment [3], 0.218; in [4], 0.632; in [5] it was 0.899; in [6] it was 0.3. Further, the odorant receptor activation in experiment [7] was 0.574; in experiment [8], 0.871; in experiment [9], 1.03; in [10], 0.139; in experiment [11], 0.918; in [12], 0.646. Besides, the odorant receptor activation turned out to be 0.292 in experiment [13]; 0.299 in experiment [14]; 0.274 in [15]; 0.255 in experiment [16]; 0.232 in [19]; 0.949 in [20].
Consider `CC1COCc2cc3c(cc21)C(C)(C)C(C)C3(C)C` (configuration not stated) [galaxolide], for which the odorant receptor activation in experiment [1] was 2.34 and 3.82; in [2], 3.27; in experiment [3], 3.55; in experiment [5] it was 3.79 and 6.64; in experiment [6] it was 2.51; in experiment [9], 4.01. For the same compound, the odorant receptor activation was 3.03 in experiment [10]; 1.91 in experiment [11]; 0.985 and 1.21 in experiment [12]; 2.55 in experiment [13]; 2.19 in experiment [14]; 2.71 in experiment [15]. The odorant receptor activation in experiment [16] is 2.07; in experiment [17], 2.1 and 1.08; in experiment [19] it was 4.44; in [20], 2.03.
For `C=C(C)C1CC=C(C)C(=O)C1` (configuration not stated) [r-carvone], the odorant receptor activation in experiment [1] was found to be 0.871; in experiment [2] it was 1.14; in [3], 1.26; in experiment [4], 0.832; in experiment [5] it was 0.946; in experiment [6], 1.79. For the same compound, the odorant receptor activation in experiment [7] is 0.713; in [8], 0.884; in experiment [9] it was 1.08; in [10] it was 1.08; in [11] it was 0.738; in experiment [12] it was 1.82. In addition, the odorant receptor activation in experiment [13] turned out to be 1.45; in experiment [14] it was 1.26; in [15], 1.05; in experiment [16], 2.11; in [17], 0.973; in experiment [18] it was 0.851. Moreover, the odorant receptor activation was 1.28 in experiment [19] and 0.968 in experiment [20].
Regarding `C=CC(C)(O)CCC=C(C)C` (configuration not stated) [linalool], the odorant receptor activation was determined as 1.01 in experiment [1]; 1.05 in experiment [2]; 0.788 in experiment [3]; 0.847 in experiment [4]; 1.08 in [5]; 0.86 in experiment [6]. The odorant receptor activation in experiment [7] was determined as 0.787; in experiment [8], 1.24; in [9], 1.1; in [10] it was 0.929; in experiment [11], 0.933; in [12] it was 1.24. Also, the odorant receptor activation stood at 0.819 in experiment [13]; 0.806 in experiment [14]; 0.843 in [15]; 0.872 in experiment [16]; 0.66 in experiment [17]; 1.04 in [18]. Moreover, the values for the odorant receptor activation in experiment [19] and in experiment [20] were 0.657 and 0.971, respectively.
With `COC(=O)c1ccccc1O` [methyl salicylate], the odorant receptor activation in experiment [1] worked out at 0.931; in experiment [2] it was 1.11; in [3] it was 1.03; in [4], 0.68; in [5] it was 1.16; in experiment [6], 0.849. The odorant receptor activation worked out at 0.784 in experiment [7]; 0.905 in experiment [8]; 1.07 in [9]; 1.11 in experiment [10]; 1.05 in experiment [11]; 1.23 in experiment [12]. The odorant receptor activation in [13] was 1.03; in experiment [14] it was 0.916; in experiment [15], 1.03; in [16], 1.49; in [17] it was 0.713; in experiment [18], 0.906. Moreover, the odorant receptor activation in experiment [19] was 0.917; in experiment [20], 0.845.
Take `C=C(C)C1CCC2=CC(=O)CC(C)C2(C)C1` (configuration not stated) [amyl laurate]: the odorant receptor activation in [17] worked out at 2.07; in experiment [18], 1.06.
